Data reported in patent publication US20180078602A1, “METHODS AND COMPOSITIONS FOR EXTENDING THE EFFICACY OF PHOSPHODIESTERASE INHIBITORS FOR TREATING ERECTILE DYSFUNCTION, AND COMPOSITIONS FOR INHIBITING THE ONSET AND SLOWING THE PROGRESSION OF ERECTILE DYSFUNCTION” (K.L.R.M., LLC, priority 2015, published 2018).
At least one structure is not confirmed: it was looked up by name or label, or the drawing left a doubt.

What was measured:
Type in all cases: in vivo, rat
[1] = system: middle-aged Fischer 344 rats (corpora cavernosa, CVOD); test: Dynamic infusion cavernosometry in middle-aged rats; details: 10 month-old rats treated daily for 2 months; compared to 12 month-old control
GSH/GSSG = GSH/GSSG ratio in whole blood (oxidative stress); details: two months of daily treatment
iNOS = iNOS immunohistochemistry in corpora cavernosa; details: daily 2 months; compared to 12 month-old controls; result in words

CN1CC(=O)N2[C@H](c3ccc4c(c3)OCO4)c3[nH]c4ccccc4c3C[C@@H]2C1=O [tadalafil]
drop rate in ICP [1]: decreased the drop rate
intracavernosal pressure after papaverine (ICPAP) [1]: increased the papaverine response
GSH/GSSG ratio (GSH/GSSG): showed increases in the ratio but did not achieve the levels seen in the young 5 month-old or the 12 month-old COMP4 treated animals
iNOS expression (iNOS): non-significant but slight increase in iNOS expression
